Some of the results follow. Most entries show no effect beyond the scatter of the controls.
What follows are targets tested with Cc1nc(Nc2ncc(C(=O)Nc3c(C)cccc3Cl)s2)cc(N2CCN(CCO)CC2)n1 [dasatinib] (assay: log2 fold change of tryptic peptide abundance, ligand vs vehicle (limited proteolysis) (log2 ratio); higher = more trypsin-susceptible (destabilized)). Conditions: ligand concentration: 5 uM; sample: K562 cleared lysate.

By UniProt entry, the sequences of proteins in these tests, tags left out. Where a name states a change or a piece, a line headed by the entry shows the natural chain unless it says otherwise.
UniProt P67809, whole entry: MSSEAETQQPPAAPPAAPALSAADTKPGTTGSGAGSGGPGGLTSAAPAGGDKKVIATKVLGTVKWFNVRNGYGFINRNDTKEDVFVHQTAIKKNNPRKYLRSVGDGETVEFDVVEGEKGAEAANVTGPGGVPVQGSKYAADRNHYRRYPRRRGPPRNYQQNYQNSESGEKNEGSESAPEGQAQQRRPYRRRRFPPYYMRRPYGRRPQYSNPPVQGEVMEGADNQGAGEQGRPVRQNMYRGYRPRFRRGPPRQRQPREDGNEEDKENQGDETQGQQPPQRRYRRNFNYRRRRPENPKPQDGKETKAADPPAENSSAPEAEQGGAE
UniProt P61088: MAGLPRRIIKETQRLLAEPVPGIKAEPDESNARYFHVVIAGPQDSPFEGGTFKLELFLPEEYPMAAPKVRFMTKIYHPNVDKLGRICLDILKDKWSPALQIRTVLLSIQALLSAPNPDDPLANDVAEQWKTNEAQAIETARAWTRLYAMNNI
UniProt P62191: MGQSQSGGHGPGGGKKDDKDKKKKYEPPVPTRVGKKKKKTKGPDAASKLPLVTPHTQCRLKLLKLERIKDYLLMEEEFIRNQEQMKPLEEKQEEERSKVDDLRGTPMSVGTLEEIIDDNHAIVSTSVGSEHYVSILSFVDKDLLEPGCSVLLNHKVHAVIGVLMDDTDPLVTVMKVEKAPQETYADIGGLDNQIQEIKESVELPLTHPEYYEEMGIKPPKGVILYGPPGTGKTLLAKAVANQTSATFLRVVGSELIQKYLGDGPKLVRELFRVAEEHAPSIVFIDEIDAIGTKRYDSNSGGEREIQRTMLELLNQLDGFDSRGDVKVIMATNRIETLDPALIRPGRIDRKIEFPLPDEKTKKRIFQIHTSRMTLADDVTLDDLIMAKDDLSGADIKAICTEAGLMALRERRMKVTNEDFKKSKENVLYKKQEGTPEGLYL
UniProt P62328: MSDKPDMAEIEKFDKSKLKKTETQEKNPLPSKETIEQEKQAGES
UniProt P68543: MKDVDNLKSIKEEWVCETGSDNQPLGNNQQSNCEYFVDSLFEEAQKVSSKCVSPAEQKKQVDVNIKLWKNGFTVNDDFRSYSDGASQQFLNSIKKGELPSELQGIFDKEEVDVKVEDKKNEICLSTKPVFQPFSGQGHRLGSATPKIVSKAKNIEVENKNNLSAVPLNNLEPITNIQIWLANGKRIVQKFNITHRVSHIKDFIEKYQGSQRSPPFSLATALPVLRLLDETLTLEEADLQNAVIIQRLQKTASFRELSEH
UniProt P55265: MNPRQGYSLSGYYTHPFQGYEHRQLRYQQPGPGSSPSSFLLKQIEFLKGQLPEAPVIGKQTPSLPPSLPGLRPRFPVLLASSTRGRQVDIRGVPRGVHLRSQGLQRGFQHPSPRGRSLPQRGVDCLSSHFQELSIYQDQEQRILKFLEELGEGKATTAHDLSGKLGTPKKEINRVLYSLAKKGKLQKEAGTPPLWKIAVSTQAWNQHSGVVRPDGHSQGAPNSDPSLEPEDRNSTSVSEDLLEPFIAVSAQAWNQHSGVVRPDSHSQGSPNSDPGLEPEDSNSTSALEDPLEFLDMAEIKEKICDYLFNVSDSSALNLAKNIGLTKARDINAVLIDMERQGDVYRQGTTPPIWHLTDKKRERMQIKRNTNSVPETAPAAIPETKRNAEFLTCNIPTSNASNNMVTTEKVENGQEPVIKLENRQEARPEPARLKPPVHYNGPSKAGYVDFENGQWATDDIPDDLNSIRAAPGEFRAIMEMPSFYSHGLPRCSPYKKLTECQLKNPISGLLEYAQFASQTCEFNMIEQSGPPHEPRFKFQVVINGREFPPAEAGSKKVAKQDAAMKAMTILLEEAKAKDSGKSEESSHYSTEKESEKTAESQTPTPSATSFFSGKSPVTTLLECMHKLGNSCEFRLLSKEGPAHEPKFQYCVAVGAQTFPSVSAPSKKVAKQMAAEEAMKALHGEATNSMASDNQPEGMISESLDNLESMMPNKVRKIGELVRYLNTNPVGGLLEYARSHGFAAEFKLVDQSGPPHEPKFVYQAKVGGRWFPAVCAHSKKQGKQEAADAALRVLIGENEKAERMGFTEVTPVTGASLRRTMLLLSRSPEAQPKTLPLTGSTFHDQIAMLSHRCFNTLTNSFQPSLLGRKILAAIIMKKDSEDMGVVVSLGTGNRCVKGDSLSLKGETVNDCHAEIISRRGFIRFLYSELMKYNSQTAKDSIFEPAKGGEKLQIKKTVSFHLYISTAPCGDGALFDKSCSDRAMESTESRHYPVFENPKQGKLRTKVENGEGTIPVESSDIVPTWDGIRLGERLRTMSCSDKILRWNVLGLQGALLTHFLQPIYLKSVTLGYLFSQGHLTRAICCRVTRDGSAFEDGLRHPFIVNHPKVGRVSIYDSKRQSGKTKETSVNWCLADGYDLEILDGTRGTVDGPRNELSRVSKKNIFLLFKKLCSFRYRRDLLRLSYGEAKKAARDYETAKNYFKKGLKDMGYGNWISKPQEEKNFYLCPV
UniProt P78406: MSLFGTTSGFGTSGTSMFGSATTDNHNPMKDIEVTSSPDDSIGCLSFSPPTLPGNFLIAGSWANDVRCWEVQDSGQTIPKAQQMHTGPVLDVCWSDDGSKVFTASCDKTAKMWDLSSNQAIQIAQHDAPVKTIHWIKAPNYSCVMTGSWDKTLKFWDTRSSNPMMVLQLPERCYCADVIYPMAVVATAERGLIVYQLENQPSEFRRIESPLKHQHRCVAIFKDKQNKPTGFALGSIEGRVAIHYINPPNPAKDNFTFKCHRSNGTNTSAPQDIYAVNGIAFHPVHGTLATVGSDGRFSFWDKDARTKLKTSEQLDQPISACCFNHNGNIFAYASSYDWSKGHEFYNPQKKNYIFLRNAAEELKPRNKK
UniProt P62873, whole entry: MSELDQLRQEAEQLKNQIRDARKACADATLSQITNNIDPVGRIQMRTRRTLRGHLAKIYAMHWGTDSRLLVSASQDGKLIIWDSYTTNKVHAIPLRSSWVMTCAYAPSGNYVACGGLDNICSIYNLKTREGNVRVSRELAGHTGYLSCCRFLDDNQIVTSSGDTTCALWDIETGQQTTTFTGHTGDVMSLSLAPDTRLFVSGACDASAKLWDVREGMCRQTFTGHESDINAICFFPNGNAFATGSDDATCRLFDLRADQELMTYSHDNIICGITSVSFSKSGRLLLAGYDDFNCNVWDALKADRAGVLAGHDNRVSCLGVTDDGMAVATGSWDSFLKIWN
UniProt P58340: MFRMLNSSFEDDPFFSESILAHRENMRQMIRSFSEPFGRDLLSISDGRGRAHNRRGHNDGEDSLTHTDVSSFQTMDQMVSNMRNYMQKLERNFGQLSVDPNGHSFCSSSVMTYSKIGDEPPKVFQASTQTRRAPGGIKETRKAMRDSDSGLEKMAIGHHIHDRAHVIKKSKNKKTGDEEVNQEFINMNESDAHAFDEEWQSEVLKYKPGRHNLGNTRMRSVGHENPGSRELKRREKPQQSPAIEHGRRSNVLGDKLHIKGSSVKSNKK
UniProt P78537: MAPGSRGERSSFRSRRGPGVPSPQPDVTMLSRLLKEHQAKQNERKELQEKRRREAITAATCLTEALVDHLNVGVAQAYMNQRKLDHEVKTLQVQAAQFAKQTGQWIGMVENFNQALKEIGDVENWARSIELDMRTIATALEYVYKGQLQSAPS
UniProt P61204: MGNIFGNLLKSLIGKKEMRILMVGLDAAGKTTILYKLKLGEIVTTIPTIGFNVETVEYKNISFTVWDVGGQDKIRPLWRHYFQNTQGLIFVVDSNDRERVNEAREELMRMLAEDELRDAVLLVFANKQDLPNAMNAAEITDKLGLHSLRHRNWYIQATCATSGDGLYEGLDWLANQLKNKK
UniProt P56270: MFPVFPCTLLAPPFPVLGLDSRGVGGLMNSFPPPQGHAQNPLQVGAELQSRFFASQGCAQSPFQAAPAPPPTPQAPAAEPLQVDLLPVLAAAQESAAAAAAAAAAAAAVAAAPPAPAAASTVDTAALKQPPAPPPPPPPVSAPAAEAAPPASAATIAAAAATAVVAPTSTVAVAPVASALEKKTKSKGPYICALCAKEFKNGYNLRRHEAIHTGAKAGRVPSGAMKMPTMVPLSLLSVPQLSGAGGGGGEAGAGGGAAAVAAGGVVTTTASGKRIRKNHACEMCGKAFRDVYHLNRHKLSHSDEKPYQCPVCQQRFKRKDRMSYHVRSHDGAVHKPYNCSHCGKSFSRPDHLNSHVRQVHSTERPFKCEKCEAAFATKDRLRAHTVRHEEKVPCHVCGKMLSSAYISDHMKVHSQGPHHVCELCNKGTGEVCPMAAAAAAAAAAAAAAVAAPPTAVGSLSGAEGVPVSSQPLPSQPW
UniProt P56377: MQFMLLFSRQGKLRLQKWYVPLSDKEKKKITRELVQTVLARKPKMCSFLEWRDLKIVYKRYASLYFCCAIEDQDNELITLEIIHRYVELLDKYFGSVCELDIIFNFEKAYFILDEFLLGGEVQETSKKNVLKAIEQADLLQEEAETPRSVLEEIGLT
UniProt P78344: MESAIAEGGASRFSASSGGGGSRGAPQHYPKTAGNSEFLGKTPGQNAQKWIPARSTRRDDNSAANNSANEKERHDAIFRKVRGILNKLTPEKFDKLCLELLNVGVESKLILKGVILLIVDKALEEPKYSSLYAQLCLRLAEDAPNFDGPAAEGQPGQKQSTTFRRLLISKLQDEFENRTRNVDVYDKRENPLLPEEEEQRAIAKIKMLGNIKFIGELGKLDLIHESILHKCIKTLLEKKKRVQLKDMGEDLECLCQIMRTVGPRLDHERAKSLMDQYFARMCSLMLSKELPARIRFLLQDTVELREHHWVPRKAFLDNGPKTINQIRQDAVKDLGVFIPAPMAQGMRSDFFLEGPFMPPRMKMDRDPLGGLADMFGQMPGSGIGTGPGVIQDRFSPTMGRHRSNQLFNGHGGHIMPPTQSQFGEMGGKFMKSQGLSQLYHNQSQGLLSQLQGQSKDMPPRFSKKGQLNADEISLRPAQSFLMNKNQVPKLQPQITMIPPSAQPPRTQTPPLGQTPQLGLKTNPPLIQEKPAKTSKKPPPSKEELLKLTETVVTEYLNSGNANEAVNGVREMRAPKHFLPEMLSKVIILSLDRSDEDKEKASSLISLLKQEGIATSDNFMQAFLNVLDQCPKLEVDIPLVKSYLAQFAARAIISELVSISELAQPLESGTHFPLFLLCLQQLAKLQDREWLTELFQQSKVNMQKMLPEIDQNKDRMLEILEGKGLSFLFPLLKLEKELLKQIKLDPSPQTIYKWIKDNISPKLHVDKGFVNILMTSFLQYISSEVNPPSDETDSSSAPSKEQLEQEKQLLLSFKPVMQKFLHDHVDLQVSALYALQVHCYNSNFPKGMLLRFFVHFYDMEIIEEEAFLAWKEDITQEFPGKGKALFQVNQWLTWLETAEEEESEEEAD
UniProt P57723: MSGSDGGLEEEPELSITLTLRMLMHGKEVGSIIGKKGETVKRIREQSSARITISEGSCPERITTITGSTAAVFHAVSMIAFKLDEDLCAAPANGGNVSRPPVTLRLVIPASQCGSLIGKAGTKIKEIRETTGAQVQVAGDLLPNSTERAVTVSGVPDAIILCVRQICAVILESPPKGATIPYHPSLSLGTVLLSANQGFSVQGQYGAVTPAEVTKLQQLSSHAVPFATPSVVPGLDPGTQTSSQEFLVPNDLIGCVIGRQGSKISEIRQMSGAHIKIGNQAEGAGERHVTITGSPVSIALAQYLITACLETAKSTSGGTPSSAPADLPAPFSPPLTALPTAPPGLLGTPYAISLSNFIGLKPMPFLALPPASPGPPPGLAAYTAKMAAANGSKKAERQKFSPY
UniProt P63208, whole entry: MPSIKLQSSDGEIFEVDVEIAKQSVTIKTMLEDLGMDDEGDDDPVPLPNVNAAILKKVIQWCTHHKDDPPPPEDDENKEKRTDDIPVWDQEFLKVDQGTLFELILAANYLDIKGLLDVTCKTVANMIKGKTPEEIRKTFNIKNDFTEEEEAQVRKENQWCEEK
UniProt P81274: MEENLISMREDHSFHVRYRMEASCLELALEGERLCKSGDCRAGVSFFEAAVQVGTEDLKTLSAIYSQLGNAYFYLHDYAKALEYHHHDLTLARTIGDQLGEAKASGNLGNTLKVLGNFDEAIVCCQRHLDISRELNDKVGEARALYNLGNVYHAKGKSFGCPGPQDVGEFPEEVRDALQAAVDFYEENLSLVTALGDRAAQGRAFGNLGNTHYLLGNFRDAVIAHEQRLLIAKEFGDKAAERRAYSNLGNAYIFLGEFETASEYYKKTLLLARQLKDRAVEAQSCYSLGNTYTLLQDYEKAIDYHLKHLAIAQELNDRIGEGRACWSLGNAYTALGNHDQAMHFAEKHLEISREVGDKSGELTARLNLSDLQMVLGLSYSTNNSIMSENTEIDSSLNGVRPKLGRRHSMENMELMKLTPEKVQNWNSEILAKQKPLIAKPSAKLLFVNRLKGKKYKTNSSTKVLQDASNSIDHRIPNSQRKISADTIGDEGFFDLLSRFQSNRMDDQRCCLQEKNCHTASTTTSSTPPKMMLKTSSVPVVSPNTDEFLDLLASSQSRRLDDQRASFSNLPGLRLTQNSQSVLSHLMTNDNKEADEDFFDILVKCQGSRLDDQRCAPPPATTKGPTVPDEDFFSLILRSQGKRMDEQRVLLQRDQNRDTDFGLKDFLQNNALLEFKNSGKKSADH

| Target | log2 fold change |
| --- | --- |
| YBX1 (peptide sequence: FPPYYMR, peptide start residue: 193) (UniProt P67809) | -0.264 |
| UniProt P62280 (peptide sequence: YYKNIGLGFKTPK, peptide start residue: 36) | 0.249 |
| RPL38 (peptide sequence: CSRYLYTLVITDKEK, peptide start residue: 38) (UniProt P63173) | 0.172 |
| UniProt P61088 (peptide sequence: ICLDILK, peptide start residue: 86) | -0.111 |
| UniProt P62191 (peptide sequence: TKGPDAASKLPLVTPHTQCR, peptide start residue: 40) | 0.177 |
| UniProt P55769 (peptide sequence: ACGVSRPVIACSVTIK, peptide start residue: 92) | -0.0839 |
| UniProt P55198 (peptide sequence: SPHVTGSGASAGTHKR, peptide start residue: 429) | -0.686 |
| TMSB4X (peptide sequence: TETQEKNPLPSKETIEQEK, peptide start residue: 21) (UniProt P62328) | 0.0568 |
| RBM6 (peptide sequence: APAEDVFK, peptide start residue: 872) (UniProt P78332) | 0.134 |
| MFAP1 (peptide sequence: DFSAPTLEDHFNK, peptide start residue: 359) (UniProt P55081) | -0.0723 |
| UBXN2A (peptide sequence: KNEICLSTKPVFQPFSGQGHR, peptide start residue: 119) (UniProt P68543) | 0.239 |
| ADAR (peptide sequence: QGDVYRQGTTPPIWHLTDK, peptide start residue: 340) (UniProt P55265) | -0.116 |
| ZNF280A (peptide sequence: LSTSDINSR, peptide start residue: 168) (UniProt P59817) | -0.245 |
| RAE1 (peptide sequence: NAAEELKPR, peptide start residue: 357) (UniProt P78406) | -0.494 |
| RAB2A (peptide sequence: KEEGEAFAR, peptide start residue: 131) (UniProt P61019) | -0.235 |
| UniProt P63000 (peptide sequence: KLTPITYPQGLAMAK, peptide start residue: 133) | -0.417 |
| UniProt P62851 (peptide sequence: NTKGGDAPAAGEDA, peptide start residue: 112) | 0.29 |
| UniProt P62873 (peptide sequence: IYAMHWGTDSR, peptide start residue: 58) | -0.11 |
| UniProt P60228 (peptide sequence: QEYLDTLYR, peptide start residue: 125) | 0.296 |

Another view of part of the listing above:
Target	log2 fold change
UniProt P62280 (peptide sequence: YYKNIGLGFKTPK, peptide start residue: 36)	0.249
RPL38 (peptide sequence: CSRYLYTLVITDKEK, peptide start residue: 38) (UniProt P63173)	0.172
UniProt P61088 (peptide sequence: ICLDILK, peptide start residue: 86)	-0.111

Following part

| Target | log2 fold change |
| --- | --- |
| MLF1 (peptide sequence: DLLSISDGR, peptide start residue: 40) (UniProt P58340) | 0.258 |
| NPEPPS (peptide sequence: LGWDPKPGEGHLDALLR, peptide start residue: 690) (UniProt P55786) | 0.25 |
| MRPS22 (peptide sequence: VPINDVLAEDK, peptide start residue: 136) (UniProt P82650) | 0.344 |
| BLOC1S1 (peptide sequence: RGPGVPSPQPDVTMLSR, peptide start residue: 16) (UniProt P78537) | 0.316 |
| MRPS25 (peptide sequence: KFVFFNIPQIQYK, peptide start residue: 46) (UniProt P82663) | 0.382 |
| ARF3 (peptide sequence: NISFTVWDVGGQDKIRPLWR, peptide start residue: 60) (UniProt P61204) | 0.23 |
| MAZ (peptide sequence: SHDGAVHKPYNCSHCGK, peptide start residue: 328) (UniProt P56270) | -0.292 |
| AP1S2 (peptide sequence: ELVQTVLAR, peptide start residue: 33) (UniProt P56377) | -0.372 |
| UniProt P62487 (peptide sequence: YFGPNLLNTVK, peptide start residue: 17) | -0.238 |
| UniProt P61077 (peptide sequence: TDRDKYNR, peptide start residue: 129) | 0.322 |
| UniProt P62314 (peptide sequence: NREPVQLETLSIR, peptide start residue: 49) | -0.0581 |
| SLC35A2 (peptide sequence: GDLITEPFLPK, peptide start residue: 378) (UniProt P78381) | 0.107 |
| EIF4G2 (peptide sequence: MCSLMLSK, peptide start residue: 281) (UniProt P78344) | -0.13 |
| UniProt P57723 (peptide sequence: ITISEGSCPER, peptide start residue: 51) | -0.249 |
| UniProt P61927 (peptide sequence: RAAVAASSSS, peptide start residue: 88) | 0.0347 |
| SKP1 (peptide sequence: TPEEIRK, peptide start residue: 131) (UniProt P63208) | 0.0937 |
| RPS21 (peptide sequence: DHASIQMNVAEVDK, peptide start residue: 28) (UniProt P63220) | 0.435 |
| GPSM2 (peptide sequence: KYKTNSSTK, peptide start residue: 454) (UniProt P81274) | -0.638 |
